These are yes or no findings as the source states them, for the method shown. Some binding calls cover weakened binding; strength is not graded here.
T1: S. cerevisiae Orc2 (S. cerevisiae), P32833
T1 chain: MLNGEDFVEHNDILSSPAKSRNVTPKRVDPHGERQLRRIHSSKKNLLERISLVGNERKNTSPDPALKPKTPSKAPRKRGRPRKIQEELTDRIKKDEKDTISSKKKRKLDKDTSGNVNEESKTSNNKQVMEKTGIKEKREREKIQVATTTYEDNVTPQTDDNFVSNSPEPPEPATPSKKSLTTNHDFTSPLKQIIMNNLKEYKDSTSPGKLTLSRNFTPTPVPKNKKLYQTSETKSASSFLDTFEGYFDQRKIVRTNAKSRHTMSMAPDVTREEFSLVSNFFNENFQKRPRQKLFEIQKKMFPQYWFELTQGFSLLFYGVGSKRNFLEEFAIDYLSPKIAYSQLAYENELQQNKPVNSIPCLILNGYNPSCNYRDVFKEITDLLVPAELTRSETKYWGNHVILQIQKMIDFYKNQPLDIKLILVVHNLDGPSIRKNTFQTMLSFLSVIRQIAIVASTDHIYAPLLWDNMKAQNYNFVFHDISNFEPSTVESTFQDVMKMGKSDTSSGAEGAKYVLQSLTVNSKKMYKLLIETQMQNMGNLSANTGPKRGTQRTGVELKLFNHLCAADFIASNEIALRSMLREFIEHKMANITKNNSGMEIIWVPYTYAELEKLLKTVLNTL

T2: S. cerevisiae Orc1 (S. cerevisiae, UniProt P54784 1-914)
T2 construct: Orc1, S. cerevisiae, wild type; Stood in the assays as a subunit of ScORC·DNA(·Cdc6); also called ScOrc1; source: High5 insect cells, co-expressed and purified as a subunit of ScORC; not shown: His6, N-terminal, cleaved
T2 sequence (looked up): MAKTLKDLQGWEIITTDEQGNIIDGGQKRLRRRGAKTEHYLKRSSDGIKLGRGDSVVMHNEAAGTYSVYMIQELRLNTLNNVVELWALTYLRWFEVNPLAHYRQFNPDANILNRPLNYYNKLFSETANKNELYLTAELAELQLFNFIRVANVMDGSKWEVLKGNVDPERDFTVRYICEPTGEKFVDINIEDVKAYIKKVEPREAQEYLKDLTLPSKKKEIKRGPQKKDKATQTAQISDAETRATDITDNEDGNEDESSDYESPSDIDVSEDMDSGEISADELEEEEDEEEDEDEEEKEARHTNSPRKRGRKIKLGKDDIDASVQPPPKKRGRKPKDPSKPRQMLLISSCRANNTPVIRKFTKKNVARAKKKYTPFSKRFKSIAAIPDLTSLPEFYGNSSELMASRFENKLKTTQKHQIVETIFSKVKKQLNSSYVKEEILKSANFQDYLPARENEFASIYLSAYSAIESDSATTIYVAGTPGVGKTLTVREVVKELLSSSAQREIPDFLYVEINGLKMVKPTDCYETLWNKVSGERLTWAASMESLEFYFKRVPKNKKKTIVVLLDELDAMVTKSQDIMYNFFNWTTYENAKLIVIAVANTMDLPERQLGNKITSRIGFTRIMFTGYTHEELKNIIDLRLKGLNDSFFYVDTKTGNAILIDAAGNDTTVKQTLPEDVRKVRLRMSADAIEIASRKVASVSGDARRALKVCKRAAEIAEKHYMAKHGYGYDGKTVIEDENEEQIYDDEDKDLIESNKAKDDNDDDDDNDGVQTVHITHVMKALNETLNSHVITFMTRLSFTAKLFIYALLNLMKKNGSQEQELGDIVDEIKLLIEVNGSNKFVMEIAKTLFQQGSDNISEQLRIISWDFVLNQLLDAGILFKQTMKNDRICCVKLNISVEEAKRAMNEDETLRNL


Legend:
[1] = target: T1, S. cerevisiae Orc2 (S. cerevisiae), …; test: cryo-EM structure; ScORC (2.5 uM), 84 bp ARS1 DNA (3 uM) and ScCdc6 (6.8 uM) reconstituted with 1 mM ATP, purified on Superose 6 in 25 mM HEPES-KOH pH 7.6, 250 mM potassium acetate, 10 mM magnesium acetate, 1 mM DTT, 0.2 mM ATP; not cross-linked; masked 3D classification; both purified; conditions: remark: other sources report otherwise
S. cerevisiae Orc1 = target: T2, S. cerevisiae Orc1; test: as above

Binder | binding [1] | binding (S. cerevisiae Orc1)
S. cerevisiae Cdc6 (ScCdc6), full length (natural protein, UniProt P09119 1-513, looked up, Cdc6, S. cerevisiae, wild type; also called co-loader; source: High5 insect cells, baculovirus, purified as ScORC (HisTrap, amylose, TEV cleavage, HisTrap, Superdex 200); not shown: His6, N-terminal, cleaved; MBP, N-terminal, cleaved) MSAIPITPTKRIRRNLFDDAPATPPRPLKRKKLQFTDVTPESSPEKLQFGSQSIFLRTKALLQKSSELVNLNSSDGALPARTAEYEQVMNFLAKAISEHRSDSLYITGPPGTGKTAQLDMIIRQKFQSLPLSLSTPRSKDVLRHTNPNLQNLSWFELPDGRLESVAVTSINCISLGEPSSIFQKIFDSFQDLNGPTLQIKNMQHLQKFLEPYHKKTTFVVVLDEMDRLLHANTSETQSVRTILELFLLAKLPTVSFVLIGMANSLDMKDRFLSRLNLDRGLLPQTIVFQPYTAEQMYEIVIQKMSSLPTIIFQPMAIKFAAKKCAGNTGDLRKLFDVLRGSIEIYELEKRFLLSPTRGSLNSAQVPLTPTTSPVKKSYPEPQGKIGLNYIAKVFSKFVNNNSTRTRIAKLNIQQKLILCTIIQSLKLNSDATIDESFDHYIKAITKTDTLAPLQRNEFLEICTILETCGLVSIKKTKCKGKTKRFVDKIDVDLDMREFYDEMTKISILKPFLH | binds | –
S. cerevisiae Orc4 (protein, UniProt P54791 1-529) MTISEARLSPQVNLLPIKRHSNEEVEETAAILKKRTIDNEKCKDSDPGFGSLQRRLLQQLYGTLPTDEKIIFTYLQDCQQEIDRIIKQSIIQKESHSVILVGPRQSYKTYLLDYELSLLQQSYKEQFITIRLNGFIHSEQTAINGIATQLEQQLQKIHGSEEKIDDTSLETISSGSLTEVFEKILLLLDSTTKTRNEDSGEVDRESITKITVVFIFDEIDTFAGPVRQTLLYNLFDMVEHSRVPVCIFGCTTKLNILEYLEKRVKSRFSQRVIYMPQIQNLDDMVDAVRNLLTVRSEISPWVSQWNETLEKELSDPRSNLNRHIRMNFETFRSLPTLKNSIIPLVATSKNFGSLCTAIKSCSFLDIYNKNQLSNNLTGRLQSLSDLELAILISAARVALRAKDGSFNFNLAYAEYEKMIKAINSRIPTVAPTTNVGTGQSTFSIDNTIKLWLKKDVKNVWENLVQLDFFTEKSAVGLRDNATAAFYASNYQFQGTMIPFDLRSYQMQIILQELRRIIPKSNMYYSWTQL | – | binds

— PMC8881611, “A mechanism of origin licensing control through autoinhibition of S. cerevisiae ORC·DNA·Cdc6” (Nature Communications, 2022)
